# In patent US20230255884A1, “FINISHED FIBROUS SRUCTURES AND METHODS OF THEIR USE AND PREPARATION” (CLEXIO BIOSCIENCES LTD., priority 2019, published 2023):
# Where two headings read alike, the source gives them in different places.
# Key:
# [1] = Example 20: loading kinetics, aqueous 10% lidocaine, 10% PEG 400, 10% propylene glycol, 2% Polysorbate 80, 60° C., pre-cut shapes of 91.4% polyamide/8.6% elastane, squeezed; assay type: physicochemical; conditions: loading time 60 min; Shape A
# [2] = not given; remark: listed apart in the source
structure (smiles),measurement,setting,value
"CCN(CC)CC(=O)Nc1c(C)cccc1C [Lidocaine, lidocaine]",% Add on,[1],45.729%
same,lidocaine concentration in the mother liquor,0.1%/25° C. liquor,0.995 mg/mL
same,lidocaine concentration in the mother liquor,0.1%/80° C. liquor,0.862 mg/mL
same,lidocaine concentration in the mother liquor,[2]; 0.1% liquor,0.457 mg/mL
same,lidocaine concentration in the mother liquor,[2]; 0.4% liquor,1.489 mg/mL
same,lidocaine concentration in the mother liquor,[2]; 1% liquor,2.659 mg/mL
